Measurements published in the supplement of paper PMC10331698.
± gives the standard deviation of the averaged measurements. Most entries show no effect beyond the scatter of the controls.

Key:
Experiment in all cases: level (log10 ratio to DMSO vehicle control); higher = higher biomarker level / cell amount than vehicle control
[1] = compound: O=C(O)CCC(F)(F)C(F)(F)C(F)(F)F [3:3 Fluorotelomer carboxylic acid] (in DMSO); details: 2200 nM
Experimental: (§1)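 BioMAP Diversity Plus panel of 12 human primary cell co-culture systems (3C, 4H, LPS, SAg, BT, BF4T, BE3C, CASM3C, HDF3CGF, KF3CT, MyoF, Mphg). Compounds were added 1 h before stimulation and left for 24 h (MyoF 48 h; BT 72 h for soluble read-outs or 6 d for IgG). Biomarkers were read by ELISA, cytotoxicity by SRB, PBMC viability and proliferation by Alamar Blue. Each well value was divided by the mean of 8 DMSO control wells on the same plate and log10 transformed; duplicate blinded samples were tested at 4 concentrations.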

Hexafluoroglutaric acid = compound: O=C(O)C(F)(F)C(F)(F)C(F)(F)C(=O)O [Hexafluoroglutaric acid] (in DMSO)
Experimental: as §1

[2] = compound: O=C(O)C(F)(OC(F)(F)C(F)(OC(F)(F)C(F)(OC(F)(F)C(F)(F)C(F)(F)F)C(F)(F)F)C(F)(F)F)C(F)(F)F [Perfluoro-(2,5,8-trimethyl-3,6,9-trioxadodecanoic)acid] (in DMSO); details: 370 nM
Experimental: as §1

[3] = compound: OCC(F)(F)C(F)(F)C(F)(F)C(F)F [1H,1H,5H-Perfluoropentanol] (in DMSO); details: 2200 nM
Experimental: as §1

[4] = compound: FC(F)(F)C(F)(F)CNCC(F)(F)C(F)(F)F [Bis(1H,1H-perfluoropropyl)amine] (in DMSO); details: 2200 nM
Experimental: as §1

Perfluorohexanoic acid = compound: O=C(O)C(F)(F)C(F)(F)C(F)(F)C(F)(F)C(F)(F)F [Perfluorohexanoic acid] (in DMSO)
Experimental: as §1

[5] = compound: O=S(=O)(O)C(F)(F)C(F)(F)C(F)(F)C(F)(F)F [Perfluorobutanesulfonic acid] (in DMSO)
Experimental: as §1

[6] = compound: O=C(O)C(F)(OC(F)(F)C(F)(F)C(F)(F)F)C(F)(F)F [Ammonium perfluoro-2-methyl-3-oxahexanoate] (in Water)
Experimental: as §1

[7] = compound: FC(F)(F)COC(OCC(F)(F)F)OCC(F)(F)F [tris(Trifluoroethoxy)methane] (in DMSO); details: 2200 nM
Experimental: as §1

[8] = compound: O=C(O)C(F)(F)C(F)(F)C(F)(F)OC(F)(C(F)(F)F)C(F)(F)F [Perfluoro-4-isopropoxybutanoic acid] (in DMSO); details: 2200 nM
Experimental: as §1

[9] = compound: OCC(F)(F)OC(F)(F)C(F)(F)OC(F)(F)CO [1H,1H,8H,8H-Perfluoro-3,6-dioxaoctane-1,8-diol] (in DMSO); details: 2200 nM
Experimental: as §1

[10] = compound: OCC(F)(F)C(F)(F)C(F)(F)C(F)(F)C(F)(F)C(F)(F)F [6:1 Fluorotelomer alcohol] (in DMSO); details: 2200 nM
Experimental: as §1

[11] = compound: FC(F)(F)C(F)(F)C(F)(F)C(F)(F)CCI [1H,1H,2H,2H-Perfluorohexyl iodide] (in DMSO); details: 2200 nM
Experimental: as §1

[12] = compound: C=C(C)C(=O)OCCC(F)(F)C(F)(F)C(F)(F)C(F)(F)C(F)(F)C(F)(F)F [6:2 Fluorotelomer methacrylate] (in DMSO); details: 2200 nM
Experimental: as §1

[13] = compound: CNS(=O)(=O)C(F)(F)C(F)(F)C(F)(F)C(F)(F)C(F)(F)C(F)(F)C(F)(F)C(F)(F)F [N-Methylperfluorooctanesulfonamide] (in DMSO); details: 2200 nM
Experimental: as §1

[14] = compound: OCCCC(F)(F)C(F)(F)C(F)(F)C(F)(F)C(F)(F)C(F)(F)C(F)(F)C(F)(F)F [3-(Perfluorooctyl)propanol] (in DMSO); details: 2200 nM
Experimental: as §1

[15] = compound: OCC(F)(F)C(F)(F)C(F)(F)C(F)(F)C(F)(F)C(F)(F)CO [1H,1H,8H,8H-Perfluorooctane-1,8-diol] (in DMSO); details: 2200 nM
Experimental: as §1

Test System | level (log10) [1] | level (log10) (Hexafluoroglutaric acid; 2200 nM) | level (log10) (Hexafluoroglutaric acid; 6700 nM) | level (log10) (Hexafluoroglutaric acid; 20000 nM) | level (log10) (Hexafluoroglutaric acid; 60000 nM) | level (log10) [2] | level (log10) [3] | level (log10) [4] | level (log10) (Perfluorohexanoic acid; 2200 nM) | level (log10) (Perfluorohexanoic acid; 6700 nM) | level (log10) (Perfluorohexanoic acid; 20000 nM) | level (log10) (Perfluorohexanoic acid; 60000 nM) | level (log10) ([5]; 2200 nM) | level (log10) ([5]; 6700 nM) | level (log10) ([5]; 20000 nM) | level (log10) ([5]; 60000 nM) | level (log10) ([6]; 2200 nM) | level (log10) ([6]; 6700 nM) | level (log10) ([6]; 20000 nM) | level (log10) ([6]; 60000 nM) | level (log10) [7] | level (log10) [8] | level (log10) [9] | level (log10) [10] | level (log10) [11] | level (log10) [12] | level (log10) [13] | level (log10) [14] | level (log10) [15]
KF3CT:uPA | 0.002 ± 0.0014 | -0.017 ± 0.013 | -0.019 ± 0.024 | -0.0055 ± 0.0035 | -0.011 ± 0.011 | -0.0005 ± 0.012 | -0.0085 ± 0.013 | 0.011 ± 0.024 | -0.0095 ± 0.021 | 0.0125 ± 0.0064 | -0.004 ± 0.0085 | 0.016 ± 0.0099 | -0.0045 ± 0.032 | -0.0275 ± 0.029 | -0.0215 ± 0.00071 | -0.0035 ± 0.00071 | -0.01 ± 0.031 | -0.0275 ± 0.043 | -0.009 ± 0.0099 | -0.0175 ± 0.019 | 0.011 ± 0.018 | 0.001 ± 0.0057 | 0.003 ± 0.0057 | -0.0195 ± 0.013 | 0.0105 ± 0.013 | -0.016 ± 0.014 | 0.02 ± 0.0042 | -0.001 ± 0.047 | 0.005 ± 0.0071
LPS:CCL2/MCP-1 | -0.0005 ± 0.025 | -0.0075 ± 0.026 | -0.0135 ± 0.026 | -0.012 ± 0.011 | -0.004 ± 0.013 | 0.0045 ± 0.044 | 0.01 ± 0.037 | 0.008 ± 0.0099 | 0.0005 ± 0.023 | -0.0035 ± 0.00071 | -0.008 ± 0.027 | -0.0045 ± 0.018 | -0.035 ± 0.079 | -0.0285 ± 0.057 | -0.021 ± 0.027 | -0.035 ± 0.0014 | 0.027 ± 0.018 | 0.0325 ± 0.033 | -0.017 ± 0.023 | -0.001 ± 0.0014 | 0.0295 ± 0.081 | -0.0095 ± 0.03 | 0.0055 ± 0.013 | -0.0045 ± 0.033 | -0.015 ± 0.011 | -0.0045 ± 0.037 | 0.013 ± 0.016 | -0.0055 ± 0.03 | 0.024 ± 0.0028
LPS:CD40 | 0.005 ± 0.025 | -0.018 ± 0.018 | 0 ± 0.0028 | -0.0035 ± 0.035 | 0.0085 ± 0.046 | 0.049 ± 0.083 | -0.027 ± 0.0099 | 0.05 ± 0.035 | 0.0465 ± 0.11 | 0.041 ± 0.096 | 0.038 ± 0.13 | 0.0215 ± 0.14 | -0.011 ± 0.0085 | -0.0395 ± 0.00071 | -0.0375 ± 0.029 | -0.0555 ± 0.052 | -0.0295 ± 0.011 | -0.014 ± 0.018 | -0.0145 ± 0.016 | -0.045 ± 0.03 | -0.0265 ± 0.052 | 0.0095 ± 0.033 | 0.009 ± 0.038 | 0.0375 ± 0.029 | 0.016 ± 0.027 | -0.027 ± 0.0099 | -0.0375 ± 0.043 | -0.0215 ± 0.049 | -0.028 ± 0.024
